# Screening data

Source: PubChem BioAssay AID2283591 (EPA ToxCast, 2025).

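Cytotoxicity counter-screen in HCT-116 reporter cells, with surviving-cell signal measured by luminescence. The test concentration is not given here. The value is the AC50, the concentration giving half of the maximal fitted drop in viability; lower values mean stronger cytotoxic potency. Active means a continuous hit score of at least 0.90 and inactive means below 0.90; how inconclusive calls are assigned is not stated here.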

Values are in µM. Every entry below has the call inconclusive. These entries are mostly ones the record files as inconclusive; other results of the assay are not listed here. Activity scores are not listed here. An entry listed twice with the same setting is a separate test.

* CCCC[O][Al]([O]CCCC)[O]CCCC : AC50 2.806 µM
* C1COCCN1 : AC50 46.08 µM
* CNC(=S)N(C)C : AC50 46.45 µM
* Cc1cc(=O)n(-c2ccccc2)n1C : AC50 6.258 µM
* O=C1CCCCCN1 : AC50 0.2842 µM
* CCc1nccnc1C : AC50 46.08 µM
* Nc1ccc(S(=O)(=O)Nc2nccs2)cc1 : AC50 46.32 µM
* C=C(C)C(=O)OCCOC(=O)C(=C)C : AC50 0.005594 µM
* Cc1cc(CCC(=O)OCCOCCOCCOC(=O)CCc2cc(C)c(O)c(C(C)(C)C)c2)cc(C(C)(C)C)c1O : AC50 41.01 µM
* C=C(C)C(=O)OCC(CC)CCCC (stereo not given) : AC50 46.08 µM
* CCCCOCCOCCOC(C)=O : AC50 45.22 µM
* CCC(C)C(=O)OCCc1ccccc1 (stereo not given) : AC50 46.08 µM
* Cc1cc(C)nc(NS(=O)(=O)c2ccc(N)cc2)n1 : AC50 86.66 µM
* CC(C)(O)Cc1ccccc1 : AC50 46.08 µM
* O=C(O)COc1ccccc1 : AC50 47.29 µM
* O=C1CC2CC1C1CCCC21 (stereo not given) : AC50 46.08 µM
* FC(F)(F)COCC(F)(F)F : AC50 23.04 µM
* O=C(O)CC(C(=O)O)C(CC(=O)O)C(=O)O (stereo not given) : AC50 46.08 µM
* C=CC(=O)OCCC(=O)O : AC50 0.02697 µM
* CN(C)CCC#N : AC50 47.09 µM
* N[C@@H](Cc1cc(I)c(Oc2cc(I)c(O)c(I)c2)c(I)c1)C(=O)O : AC50 31.57 µM
* COC(=O)/C=C\C(=O)OC : AC50 46.04 µM
* Cc1ccc(Cl)cc1 : AC50 12.29 µM
* CCc1cccc(CC)c1N : AC50 46.41 µM
* CCCSc1ccc2nc(NC(=O)OC)[nH]c2c1 : AC50 0.2884 µM
* C=COCC1CCC(COC=C)CC1 (stereo not given) : AC50 46.08 µM
* CCC(C)c1nccnc1OC (stereo not given) : AC50 46.06 µM
* CCCCCOC(=O)CCCCC : AC50 0.1428 µM
* CCCCCCCCCCCCN1CCCCCC1=O : AC50 80.83 µM
* CC(C)c1ccc(C(C)C)cc1 : AC50 0.1785 µM
* Cc1cc(C)nc(NS(=O)(=O)c2ccc(N)cc2)n1 : AC50 46.53 µM
* CC(C)c1ccc(C(C)C)cc1 : AC50 46.84 µM

3 of the entries, repeated:

SMILES	AC50 (µM)
CCc1nccnc1C	46.08
CN(C)CCC#N	47.09
O=C1CC2CC1C1CCCC21 (stereo not given)	46.08